Data on one sequence can be found in publication PMC11820759.

Chains of the proteins cited; added tags and fusions are not shown. Chains listed by the source or under a name are the forms on record and can include a tag or linker.
His-WRKY28 (BnaA03.WRKY28) (Brassica napus), one chain, as listed by the source: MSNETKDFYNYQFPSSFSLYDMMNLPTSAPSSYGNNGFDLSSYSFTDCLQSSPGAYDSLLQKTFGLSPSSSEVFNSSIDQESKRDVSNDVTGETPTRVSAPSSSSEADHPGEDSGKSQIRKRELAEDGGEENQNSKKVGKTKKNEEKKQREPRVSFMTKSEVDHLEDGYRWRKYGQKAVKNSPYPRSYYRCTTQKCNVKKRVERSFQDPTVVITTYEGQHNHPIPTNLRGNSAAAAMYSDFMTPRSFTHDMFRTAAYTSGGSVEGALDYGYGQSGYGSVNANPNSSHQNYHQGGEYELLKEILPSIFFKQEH

For the data set, the system named is His-WRKY28 (BnaA03.WRKY28) (Brassica napus). The experiment in a line: EMSA. The conditions noted are these: 25 nM probe; EMSA/Gel-shift Binding Buffer (Beyotime GS005), 25 nM Cy5 probe, 23 °C 30 min; 6% native PAGE, 0.5x TBE pH 8.3, 4 °C; salt and binding pH not stated; recombinant protein; protein details: His; label: Cy5. (A gel shift assay detects complexes by their altered migration in electrophoresis.)

For at least one entry, the source does not settle the construct or the ends of the probe. Negatives hold for the conditions tested.

For “CAACATATCAAACAATCATCAGAGAGATCATCATCAATTCCTACAA (double strand) [mA01/C01.BRC1-probe]”, the binding result is “no binding”.
